PubChem BioAssay AID1224830 | NIAID | 2016

- Test: 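Regulators of TLR4 signalling towards TNF-alpha in macrophage-like cells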 (primary screen)
- Cells: human THP-1 monocytic leukaemia cells, TNF dual-luciferase reporter clone, PMA-differentiated to macrophage-like cells
- Knock-down reagent: siRNA pool against human genes, 50 nM
- Timing: LPS for 4 h, given about 3 days after siRNA transfection
- Conditions: bacterial LPS (TLR4 ligand), 10 ng/ml
- Measurement: 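Ratio of firefly to renilla light, scaled to the plate median and expressed as a robust z-score per replicate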
- Direction: TNF reporter robust z-score: higher = stronger TNF reporter response to LPS
- Active means: 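a well is active when its z-score exceeds 2.8 or falls below -1.5; control wells carry no call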
This is one part, drawn at random, of about 18,000 reagents. About 2,900 of all reagents (16%) were called active. 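Calls are made per well; low scores hint the gene aids the LPS response, high scores that it dampens it.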 A number with no mark means an inactive call. Repeated entries: four replicate wells of each siRNA pool.

SCO1 (synthesis of cytochrome C oxidase 1)
- TNF reporter robust z-score: -0.83

SCO1 (synthesis of cytochrome C oxidase 1)
- TNF reporter robust z-score: -0.23

SCO1 (synthesis of cytochrome C oxidase 1)
- TNF reporter robust z-score: -0.17

SCO1 (synthesis of cytochrome C oxidase 1)
- TNF reporter robust z-score: -0.55

CSRNP1 (cysteine and serine rich nuclear protein 1)
- TNF reporter robust z-score: -0.1

CSRNP1 (cysteine and serine rich nuclear protein 1)
- TNF reporter robust z-score: -0.76

CSRNP1 (cysteine and serine rich nuclear protein 1)
- TNF reporter robust z-score: -0.54

CSRNP1 (cysteine and serine rich nuclear protein 1)
- TNF reporter robust z-score: 0.35

GLT1D1 (glycosyltransferase 1 domain containing 1)
- TNF reporter robust z-score: -0.15

GLT1D1 (glycosyltransferase 1 domain containing 1)
- TNF reporter robust z-score: -0.36

GLT1D1 (glycosyltransferase 1 domain containing 1)
- TNF reporter robust z-score: -0.42

GLT1D1 (glycosyltransferase 1 domain containing 1)
- TNF reporter robust z-score: -0.29

STOML2 (stomatin like 2)
- TNF reporter robust z-score: 0.33

STOML2 (stomatin like 2)
- TNF reporter robust z-score: 1.03

STOML2 (stomatin like 2)
- TNF reporter robust z-score: -0.09

STOML2 (stomatin like 2)
- TNF reporter robust z-score: 0.61

MIDN (midnolin)
- TNF reporter robust z-score: -0.62

MIDN (midnolin)
- TNF reporter robust z-score: 0.97

MIDN (midnolin)
- TNF reporter robust z-score: 0.03

MIDN (midnolin)
- TNF reporter robust z-score: 0.46

VARS2 (valyl-tRNA synthetase 2, mitochondrial)
- TNF reporter robust z-score: 0.67

VARS2 (valyl-tRNA synthetase 2, mitochondrial)
- TNF reporter robust z-score: -0.33

VARS2 (valyl-tRNA synthetase 2, mitochondrial)
- TNF reporter robust z-score: 1.59

VARS2 (valyl-tRNA synthetase 2, mitochondrial)
- TNF reporter robust z-score: 1.67

SLC25A10
- TNF reporter robust z-score: 3.05 (active)

SLC25A10
- TNF reporter robust z-score: -0.99

SLC25A10
- TNF reporter robust z-score: -1.24

SLC25A10
- TNF reporter robust z-score: -1.6 (active)

MUC13 (mucin 13, cell surface associated)
- TNF reporter robust z-score: -0.64

MUC13 (mucin 13, cell surface associated)
- TNF reporter robust z-score: -0.44

MUC13 (mucin 13, cell surface associated)
- TNF reporter robust z-score: -0.38

MUC13 (mucin 13, cell surface associated)
- TNF reporter robust z-score: -0.04

OR11G2 (olfactory receptor family 11 subfamily G member 2)
- TNF reporter robust z-score: -0.32

OR11G2 (olfactory receptor family 11 subfamily G member 2)
- TNF reporter robust z-score: -0.26

OR11G2 (olfactory receptor family 11 subfamily G member 2)
- TNF reporter robust z-score: -0.36

OR11G2 (olfactory receptor family 11 subfamily G member 2)
- TNF reporter robust z-score: 0.27

RNLS (renalase, FAD dependent amine oxidase)
- TNF reporter robust z-score: -0.23

RNLS (renalase, FAD dependent amine oxidase)
- TNF reporter robust z-score: -0.14

RNLS (renalase, FAD dependent amine oxidase)
- TNF reporter robust z-score: -0.7

RNLS (renalase, FAD dependent amine oxidase)
- TNF reporter robust z-score: -0.42

TRAM1 (translocation associated membrane protein 1)
- TNF reporter robust z-score: 0.41

TRAM1 (translocation associated membrane protein 1)
- TNF reporter robust z-score: -0.56

TRAM1 (translocation associated membrane protein 1)
- TNF reporter robust z-score: -0.76

TRAM1 (translocation associated membrane protein 1)
- TNF reporter robust z-score: -0.82

DOCK6 (dedicator of cytokinesis 6)
- TNF reporter robust z-score: 1.35

DOCK6 (dedicator of cytokinesis 6)
- TNF reporter robust z-score: 0.6

DOCK6 (dedicator of cytokinesis 6)
- TNF reporter robust z-score: 0.71

DOCK6 (dedicator of cytokinesis 6)
- TNF reporter robust z-score: 2.24

Laid out differently: results already given
| Gene | TNF reporter robust z-score |
| --- | --- |
| SLC25A10 | -0.99 |
| SLC25A10 | -1.24 |
| SLC25A10 | -1.6 (active) |
| MUC13 (mucin 13, cell surface associated) | -0.64 |
| MUC13 (mucin 13, cell surface associated) | -0.44 |
| MUC13 (mucin 13, cell surface associated) | -0.38 |
| MUC13 (mucin 13, cell surface associated) | -0.04 |
| OR11G2 (olfactory receptor family 11 subfamily G member 2) | -0.32 |
